# Source: patent publication US12158464B2, “Methods for modeling disease tissue using three-dimensional tissue systems” (priority 2013, dated 2024)
# System: human cardiac tissue strands (hESC, Hes2 derived cardiomyocytes)
# Assay: Biorod drug testing: tissue beating pattern and contractile force by polymer wire deflection
# Assay type: cell-based
# Conditions: 100 nM
# Experimental: Cardiomyocytes were derived from human embryonic stem cell lines (hESC, Hes2). Embryoid bodies (EBs) were differentiated to the cardiovascular lineage and disassociated as previously described in Device 1 Methods. […] After seeding, brightfield images (see FIG. 39A for an example) of the tissue strands were taken every day (n=3 per group) using optical microscope (Olympus CKX41) and the diameters of the tissue strands at four distinct locations were analyzed with imageJ (see FIG. 39B for an example). Tissue strand lengths were also analyzed with same method.
# Tissue contractile behavior tracing and measurement was carried out. POMac is auto-fluorescent at a wide range of wavelenths; therefore the wires were imaged with a fluorescence microscope under DAPI channel (e.g. 461 nm wavelength) to trace the bending movements of the wires. […] Image sequences were analyzed with ImageJ software using tracking plugin. […] Tissue stretching wires can be considered uniformly distributed Load, Wo (Load per force bearing length), which can be calculated with displacement of center point of wires in image sequence, and F can be calculated as well. […]
smiles,measurement,value
Cc1cccc(CCN2CCC(C(=O)c3ccc(NS(C)(=O)=O)cc3)CC2)n1 [E4301],tissue beating pattern,prolonged relaxation and occasional after beat
